# Measured values: the supplement of paper PMC8728848
# The list shows a part of the results.
# Key:
# Experiment in all cases: glycan array binding signal (z-score within array); higher = stronger binding
# Conditions in all cases: glycan notation: IUPAC condensed, linker removed
# [1] = molecular target: Man(a1-2)Man(a1-3)[Man(a1-2)Man(a1-6)]Man
# In short: (§1)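 Glycan array data were curated from 3228 arrays in the Consortium for Functional Glycomics database and kept only where the protein sequence was available. Glycan names were converted to IUPAC-condensed notation, and columns mapping to the same glycan were averaged. The binding signal is a within-array Z-score, averaged across arrays of the same protein sequence at different concentrations or buffers and across linkers. Negative Z-scores can be read as non-binding.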
# [2] = molecular target: Man(a1-2)Man(a1-3)[Man(a1-2)Man(a1-6)]Man(a1-6)[Man(a1-2)Man(a1-2)Man(a1-3)]Man
# In short: as §1
# [3] = molecular target: Man(a1-2)Man(a1-3)[Man(a1-2)Man(a1-6)]Man(a1-6)[Man(a1-2)Man(a1-2)Man(a1-3)]Man(b1-4)GlcNAc(b1-4)GlcNAc
# In short: as §1
# [4] = molecular target: Man(a1-2)Man(a1-3)[Man(a1-6)]Man(a1-6)[Man(a1-2)Man(a1-3)]Man(b1-4)GlcNAc(b1-4)GlcNAc
# In short: as §1
# [5] = molecular target: Man(a1-2)Man(a1-6)[Man(a1-3)]Man(a1-6)[Man(a1-2)Man(a1-2)Man(a1-3)]Man
# In short: as §1
# [6] = molecular target: Man(a1-2)Man(a1-6)[Man(a1-3)]Man(a1-6)[Man(a1-2)Man(a1-2)Man(a1-3)]Man(b1-4)GlcNAc(b1-4)GlcNAc
# In short: as §1
# [7] = molecular target: Man(a1-3)[Man(a1-6)]Man
# In short: as §1
# [8] = molecular target: Man(a1-3)[Man(a1-6)]Man(a1-6)[Man(a1-2)Man(a1-3)]Man(b1-4)GlcNAc(b1-4)GlcNAc
# In short: as §1
# [9] = molecular target: Man(a1-3)[Man(a1-6)]Man(a1-6)[Man(a1-3)]Man
# In short: as §1
# [10] = molecular target: Man(a1-3)[Man(a1-6)]Man(a1-6)[Man(a1-3)]Man(b1-4)GlcNAc(b1-4)GlcNAc
# In short: as §1
# [11] = molecular target: Man(a1-3)[Man(a1-6)]Man(b1-4)GlcNAc(b1-4)GlcNAc
# In short: as §1
# [12] = molecular target: Man(a1-3)[Man(a1-6)]Man(b1-4)GlcNAc(b1-4)[Fuc(a1-6)]GlcNAc
# In short: as §1
# [13] = molecular target: Man(a1-6)Man
# In short: as §1
# [14] = molecular target: Man(b1-4)GlcNAc
# In short: as §1
# [15] = molecular target: MurNAc(b1-4)GlcNAc
# In short: as §1
# [16] = molecular target: Neu5Ac(a2-3)Gal
# In short: as §1
# [17] = molecular target: Neu5Ac(a2-3)Gal(b1-3)GalNAc
# In short: as §1
# [18] = molecular target: Neu5Ac(a2-3)Gal(b1-3)GalNAc(b1-3)Gal(a1-4)Gal(b1-4)Glc
# In short: as §1
# [19] = molecular target: Neu5Ac(a2-3)Gal(b1-3)GalNAc(b1-4)Gal(b1-4)Glc
# In short: as §1
# [20] = molecular target: Neu5Ac(a2-3)Gal(b1-3)GalNAc(b1-4)[Neu5Ac(a2-3)]Gal(b1-4)Glc
# In short: as §1
# [21] = molecular target: Neu5Ac(a2-3)Gal(b1-3)GalNAc(b1-4)[Neu5Ac(a2-8)Neu5Ac(a2-3)]Gal(b1-4)Glc
# In short: as §1
# [22] = molecular target: Neu5Ac(a2-3)Gal(b1-3)GalNAc6S
# In short: as §1
# [23] = molecular target: Neu5Ac(a2-3)Gal(b1-3)GlcNAc
# In short: as §1
# [24] = molecular target: Neu5Ac(a2-3)Gal(b1-3)GlcNAc(b1-2)Man
# In short: as §1
# [25] = molecular target: Neu5Ac(a2-3)Gal(b1-3)GlcNAc(b1-2)Man(a1-3)[GlcNAc(b1-4)][Neu5Ac(a2-3)Gal(b1-3)GlcNAc(b1-2)Man(a1-6)]Man(b1-4)GlcNAc(b1-4)GlcNAc
# In short: as §1
# [26] = molecular target: Neu5Ac(a2-3)Gal(b1-3)GlcNAc(b1-2)Man(a1-3)[Neu5Ac(a2-3)Gal(b1-3)GlcNAc(b1-2)Man(a1-6)]Man(b1-4)GlcNAc(b1-4)GlcNAc
# In short: as §1
# [27] = molecular target: Neu5Ac(a2-3)Gal(b1-3)GlcNAc(b1-2)[Neu5Ac(a2-3)Gal(b1-3)GlcNAc(b1-4)]Man(a1-6)[Neu5Ac(a2-3)Gal(b1-3)GlcNAc(b1-2)Man(a1-3)]Man(b1-4)GlcNAc(b1-4)GlcNAc
# In short: as §1
# [28] = molecular target: Neu5Ac(a2-3)Gal(b1-3)GlcNAc(b1-3)Gal(b1-3)GlcNAc
# In short: as §1
# [29] = molecular target: Neu5Ac(a2-3)Gal(b1-3)GlcNAc(b1-3)Gal(b1-4)GlcNAc
# In short: as §1
# [30] = molecular target: Neu5Ac(a2-3)Gal(b1-3)GlcNAc(b1-3)GalNAc
# In short: as §1
# [31] = molecular target: Neu5Ac(a2-3)Gal(b1-3)GlcNAc(b1-6)GalNAc
# In short: as §1
# [32] = molecular target: Neu5Ac(a2-3)Gal(b1-3)GlcNAc6S
# In short: as §1
# [33] = molecular target: Neu5Ac(a2-3)Gal(b1-3)[Fuc(a1-4)]GlcNAc
# In short: as §1
# [34] = molecular target: Neu5Ac(a2-3)Gal(b1-3)[Fuc(a1-4)]GlcNAc(b1-3)Gal(b1-3)[Fuc(a1-4)]GlcNAc
# In short: as §1
# [35] = molecular target: Neu5Ac(a2-3)Gal(b1-3)[Fuc(a1-4)]GlcNAc(b1-3)Gal(b1-4)[Fuc(a1-3)]GlcNAc
# In short: as §1
# [36] = molecular target: Neu5Ac(a2-3)Gal(b1-3)[GlcNAc(b1-6)]GalNAc
# In short: as §1
# [37] = molecular target: Neu5Ac(a2-3)Gal(b1-3)[Neu5Ac(a2-6)]GalNAc
# In short: as §1
binder,measurement,setting,value
Epa2 (Candida glabrata) (protein) MGSSHHHHHHSSGLVPRGSHMASSKDPTSFPMGCSPQVLKTQPGLAVKLYSYGHPVPGCAYNTYQYPDFPRSGYKKERKLADITGVNGRIDIDLKPNDPCRVLSGNLPSNYNYQNTLTYTNFTMILYGYFQPKVTGYHTFNLEADDLLFMNLGAGNAFDCCRAESTLDNFGNYQSYSIWGTDKATADLTVFLVSGIYYPIRLFYVNRDNNAVLDFSFSTEFNKEIIHDFTSYFFSASDEEQCPGNI,glycan array binding signal (z-score),[1],-0.632
same,glycan array binding signal (z-score),[2],-0.808
same,glycan array binding signal (z-score),[3],-0.098
same,glycan array binding signal (z-score),[4],-1.18
same,glycan array binding signal (z-score),[5],-0.217
same,glycan array binding signal (z-score),[6],-0.451
same,glycan array binding signal (z-score),[7],0.472
same,glycan array binding signal (z-score),[8],1.13
same,glycan array binding signal (z-score),[9],0.286
same,glycan array binding signal (z-score),[10],0.287
same,glycan array binding signal (z-score),[11],-0.254
same,glycan array binding signal (z-score),[12],0.449
same,glycan array binding signal (z-score),[13],0.561
same,glycan array binding signal (z-score),[14],0.822
same,glycan array binding signal (z-score),[15],0.27
same,glycan array binding signal (z-score),[16],0.709
same,glycan array binding signal (z-score),[17],-0.038
same,glycan array binding signal (z-score),[18],0.662
same,glycan array binding signal (z-score),[19],0.284
same,glycan array binding signal (z-score),[20],-0.342
same,glycan array binding signal (z-score),[21],-0.389
same,glycan array binding signal (z-score),[22],-0.993
same,glycan array binding signal (z-score),[23],-0.578
same,glycan array binding signal (z-score),[24],-0.267
same,glycan array binding signal (z-score),[25],0.217
same,glycan array binding signal (z-score),[26],-0.465
same,glycan array binding signal (z-score),[27],-0.334
same,glycan array binding signal (z-score),[28],-0.39
same,glycan array binding signal (z-score),[29],-0.497
same,glycan array binding signal (z-score),[30],-0.475
same,glycan array binding signal (z-score),[31],0.976
same,glycan array binding signal (z-score),[32],0.604
same,glycan array binding signal (z-score),[33],-0.367
same,glycan array binding signal (z-score),[34],-0.034
same,glycan array binding signal (z-score),[35],0.337
same,glycan array binding signal (z-score),[36],-0.044
same,glycan array binding signal (z-score),[37],-0.424

# A section taken from the entries so far, for reference:
binder,measurement,setting,value
Epa2 (Candida glabrata) (protein) MGSSHHHHHHSSGLVPRGSHMASSKDPTSFPMGCSPQVLKTQPGLAVKLYSYGHPVPGCAYNTYQYPDFPRSGYKKERKLADITGVNGRIDIDLKPNDPCRVLSGNLPSNYNYQNTLTYTNFTMILYGYFQPKVTGYHTFNLEADDLLFMNLGAGNAFDCCRAESTLDNFGNYQSYSIWGTDKATADLTVFLVSGIYYPIRLFYVNRDNNAVLDFSFSTEFNKEIIHDFTSYFFSASDEEQCPGNI,glycan array binding signal (z-score),[31],0.976
same,glycan array binding signal (z-score),[32],0.604
